Data taken from patent publication US6867179B1, “Methods of inducing hair growth and coloration” (Trustees of Boston University, priority 1994, dated 2005).
For at least one compound, name, drawing or mass did not settle the structure.

Test system: p75
Assay: Regulation of p75 mRNA in melanocytes by agents that increase cAMP
Assay type: cell-based, human
Conditions: forskolin 50 μM or IBMX 100 μM, within 24 hours
Experimental: MC were stimulated with growth factor-containing medium supplemented with forskolin (50 μM) or IBMX (100 μM) that increase cAMP levels. […] To determine if ultraviolet (UV) irradiation that induces cutaneous injury upregulates p75, MC were sham- or UV-irradiated with solar simulated light (30 mJ/cm^2, metered at 285+5 nm). […] Furthermore, 48 hours after irradiation, cAMP levels were >70% decreased in UV- vs sham-irradiated cells.

C=C[C@@]1(C)CC(=O)[C@]2(O)[C@@]3(C)[C@@H](O)CCC(C)(C)[C@@H]3[C@H](O)[C@H](OC(C)=O)[C@@]2(C)O1 [forskolin]
p75 mRNA upregulation: substantially inhibited this upregulation
